Values quoted from earlier work in patent US4742073A (priority 1982, dated 1988).
At least one read-out could not be matched to a standard name with certainty.

Tested on: eye
Conditions: topical instillation; Lee & Robinson (1979); "or less"; cited from earlier work

SMILES: CC[C@@H]1C(=O)OC[C@@H]1Cc1cncn1C [Pilocarpine, reference compound]
- instilled dose gaining access to the internal eye structure (ocular bioavailability): 1-3%
